{"source": "patent US20020160986A1", "about": "“Compounds having activity as inhibitors of cytochrome P450RAI” (priority 2000, published 2002)", "molecular_target": "T1, RARγ (Homo sapiens, UniProt P13631)", "T1 sequence (P13631 1-454)": "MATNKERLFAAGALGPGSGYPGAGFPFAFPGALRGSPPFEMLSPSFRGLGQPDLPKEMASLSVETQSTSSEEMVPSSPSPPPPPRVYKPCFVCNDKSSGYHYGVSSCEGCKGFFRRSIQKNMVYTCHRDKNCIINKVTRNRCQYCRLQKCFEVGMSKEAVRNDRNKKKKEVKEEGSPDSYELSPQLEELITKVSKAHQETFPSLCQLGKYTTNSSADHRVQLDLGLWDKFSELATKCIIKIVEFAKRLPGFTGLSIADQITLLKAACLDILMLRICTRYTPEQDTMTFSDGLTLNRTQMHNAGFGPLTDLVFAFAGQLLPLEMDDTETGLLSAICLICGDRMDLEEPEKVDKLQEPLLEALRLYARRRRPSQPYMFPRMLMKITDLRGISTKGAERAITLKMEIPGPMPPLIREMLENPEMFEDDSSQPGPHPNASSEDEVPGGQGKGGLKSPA", "test": "ligand binding assay, RARγ", "conditions": "read-out: RAR γ Kd", "note": "For at least one compound, name, drawing or mass did not settle the structure.", "data": [{"smiles": "Cc1cc(C#Cc2ccc(CC(=O)O)cc2)ccc1Cn1ccnc1", "note": "[Compound 121, [4-(4-Imidazol-1-yl-methyl-3-methyl-phenylethynyl)-phenyl]-acetic acid]", "values": [{"measurement": "Kd", "value": "> 100", "unit": "µM"}]}]}
